Data as given in PubChem BioAssay AID1259405 (NCATS, 2018)
The whole screen tested about 50,000 reagents; this is a part drawn at random. Of all reagents, about 4,000 (8%) got an active call. 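Mouse siRNA library applied to hamster cells; one well for each siRNA.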 Unmarked entries are inactive. Reagents against one gene are numbered here. Reagent sequences are not shown.

Assay: 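Silenced genes that increase secreted GFP made by CHO cells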 (primary screen)
System: Chinese hamster CHO-K1 ovary cells with stable secreted eGFP expression
Knock-down reagent: single siRNA against mouse genes, 0.8 pmol siRNA per well (2 µl of 400 nM stock)
Duration: 3 days
Read-out: 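Per-well intracellular GFP measured by laser scanning cytometry, plus viability from ATP luminescence, each relative to plate median of non-targeting control wells, in %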
Direction: GFP, % of control: higher = more GFP per well, higher productivity; viability (ATP), % of control: higher = more viable cells (more ATP)
Hit rule: 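a knock-down is called active if GFP reaches 120% or more of non-targeting control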

no.	gene	reagent no.	GFP, % of control	viability (ATP), % of control
1	Cryz	1	104	90.2
2	Cryz	2	97.5	64.6
3	Cryz	3	72.3	55.9
4	Nme1	1	121 (active)	102
5	Nme1	2	48.6	66.8
6	Nme1	3	85.9	77.9
7	Stk3	1	62.5	61.6
8	Lrp10	1	86.8	84.6
9	Lrp10	2	95.3	68.1
10	Lrp10	3	89.9	68.8
11	Ncmap	1	84.5	85
12	Ncmap	2	53.9	51.6
13	Ncmap	3	95.7	95.8
14	Ina	1	51.1	73.3
15	Ina	2	56.8	65
16	Ina	3	85.9	79.9
17	D630023F18Rik	1	66.1	84.2
18	D630023F18Rik	2	89.5	75.9
19	D630023F18Rik	3	99.3	69.5
20	Rgs19	1	106	57.1
21	Rgs19	2	89.3	66.9
22	Rgs19	3	42.9	49.5
23	Tub	1	36.3	20.4
24	Tub	2	71.4	88.5
25	Tub	3	108	97
26	Or10q1	1	25	19
27	Or10q1	2	70.8	92.7
28	Or10q1	3	181 (active)	81.5
29	Kcnd1	1	90.8	73.7
30	Kcnd1	2	78.2	119
31	Kcnd1	3	88	79
32	Taf3	1	78.4	75.2
33	Taf3	2	90.1	107
34	Taf3	3	135 (active)	122
35	Tomm40l	1	55.6	58.9
36	Tomm40l	2	111	109
37	Tomm40l	3	103	140
38	Vwa3a	1	86.1	61
39	Vwa3a	2	85.5	57.9
40	Vwa3a	3	67.9	47.8
41	Or6c2b	1	68.5	44.5
42	Or6c2b	2	69.1	73.2
43	Or6c2b	3	59.4	120
44	Polr2d	1	60.3	45.5
45	Polr2d	2	97.3	89.5
46	Rnase2b	1	96.7	47.8
47	Rnase2b	2	83.5	81.7
48	Rnase2b	3	71.2	62.8
49	Tas2r117	1	73.8	107
50	Tas2r117	2	85.8	64.5
51	Tas2r117	3	0.331	195
52	Pigu	1	37.5	52.2
53	Pigu	2	45.3	65.8
54	Pigu	3	115	145
55	A930002I21Rik	1	83.4	81.7
56	A930002I21Rik	2	20.8	32.3
57	A930002I21Rik	3	71.4	79.7
58	Or7d10	1	118	74.6
59	Or7d10	2	65	57.2
60	Or7d10	3	89.1	117
61	Cldn17	1	69.4	62.7
62	Cldn17	2	62	72.5
63	Cldn17	3	77.4	119
64	Or8b49	1	106	104
65	Or8b49	2	126 (active)	88.7
66	Or8b49	3	85.4	66.8
67	Prr15l	1	94	84
68	Prr15l	2	103	86.8
69	Prr15l	3	123 (active)	156
70	Emsy	1	97.5	105
71	Emsy	2	88.7	67
72	Emsy	3	105	105
73	Tmem35a	1	99.8	72.5
74	Tmem35a	2	83.9	73.9
75	Tmem35a	3	65.9	93.2
76	Prl4a1	1	108	71.1
77	Prl4a1	2	41.3	54.8
78	Prl4a1	3	47.5	56.8
79	Arl4a	1	30.8	44
80	Arl4a	2	72.3	89
81	Arl4a	3	62.4	50.9
82	Vma12	1	168 (active)	90
83	Vma12	2	43.2	46.8
84	Vma12	3	92.2	78.8
